Screen size: about 200,000 compounds; about 25 (0.01%) were called active. This list was built around the results that the source calls inconclusive (neither active nor inactive); the mix of calls is not that of the screen. The call rests on the fitted dose curve; in most records, active means well fitted inhibition curve with a large enough effect in the signal ratio, with a control signal flat (not every such curve was filed as active); inconclusive means small, poorly fitted or top-dose-only effect, or effect the other way, or a change in a side signal; inactive means flat fitted curve, though single readings scatter; the % refers to the signal ratio. Potencies beside an inconclusive call are fits to weak or partial responses and may not hold up.
Experiment: qHTS Assay for Modulators of Lamin A Splicing
Details: HeLa LMNA splicing GFP/RFP minigene ratio, 48 h; ratio change, negative = inhibition: at 46.1 µM (top of the series) unless noted
How it was run: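 S3 HeLa stable clones carrying a lamin A-EGFP splicing minigene plus DsRed2 were seeded at 600 cells/well in Opti-MEM with 2% FBS, pin-dosed and incubated 48 h at 37°C. Acumen cytometry (488 nm) gave the GFP/RFP total-intensity ratio.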
On the % scale 0 is the no-effect control and ±100 the full control effect; potency means the concentration at half of the fitted maximal effect.

| Compound | ratio change, negative = inhibition | Potency |
| --- | --- | --- |
| COc1ccc(C(=O)c2ccc(Cl)cc2Cl)cc1 | inactive |  |
| Cc1ccc(/C=N/n2c(-c3ccncc3)n[nH]c2=S)o1 | inactive |  |
| COc1cc(CNCCN(C)C)c(Br)cc1OCC(=O)NCc1ccccc1 | inconclusive: 1.97% |  |
| Cc1cccc(N2CCN(C(=O)c3ccncc3)CC2C)c1 (stereo not drawn) | inconclusive: -22.5% |  |
| CCc1ccc(N2CCn3c2nc2c3c(=O)n(Cc3cccc(C)c3)c(=O)n2C)cc1 | inconclusive: 12.6% [at 46 µM] |  |
| CO[C@@H]1C[C@H](O[C@H]2[C@@H](C)[C@H](O[C@@H]3O[C@@H](C)C[C@@H](N(C)C)[C@@H]3OC(C)=O)[C@H](C)C[C@]3(CO3)C(=O)[C@H](C)[C@H](OC(C)=O)[C@H](C)[C@H](C)OC(=O)[C@@H]2C)O[C@H](C)[C@@H]1OC(C)=O | inconclusive: 7.82% [at 22.9 µM] |  |
| S=C(Nc1ccc2c(c1)OCO2)N1CCN(Cc2ccco2)CC1 | inconclusive: 10.1% [at 46 µM] |  |
| COC(=O)c1[nH]c2cccc(OC)c2c1NC(=O)CCN1CCSCC1 | inconclusive: 10.9% [at 46 µM] |  |
| O=C(C1CCN(S(=O)(=O)c2cccc3cccnc23)CC1)N1CCCC1 | inactive |  |
| COC(=O)c1cccc(NC(=O)CCCOc2ccccc2)c1 | inactive |  |
| COc1ccc2c(c1)Cc1sc(NC(=O)c3ccco3)nc1-2 | inactive |  |
| CC(C)(C)NC(=O)C(=O)NNC(=O)c1cccc([N+](=O)[O-])c1 | inactive |  |
| Cc1ccc(S(=O)(=O)N2CCOCC2)cc1NC(=O)COC(=O)CNC(=O)c1ccc(Oc2ccccc2)cc1 | inactive |  |
| COc1ccccc1-c1nc(Nc2ccncc2)c2ccccc2n1 |  | inconclusive: 11.2 µM [inhibitor, partial curve] |
| CC(=O)n1nc(-c2ccco2)nc1N | inactive |  |
| O=C(Nc1cccc(C(=O)N2CCN(c3cccc(Cl)c3)CC2)c1)c1nsc2ccccc12 | inconclusive: 9.78% [at 46 µM] |  |
| O=C(NCc1ccccc1Cl)c1ccc(Cn2c(SCc3ccccc3)nc3cccnc32)cc1 | inactive |  |
| NC(=O)c1c(NC(=O)CN2CCOCC2)sc2c1CCC2 | inconclusive: 18.8% |  |
| Cc1[nH]c2ccccc2c1C(c1ccncc1)N1CCC(C)CC1 (stereo not drawn) |  | inconclusive: 2.82 µM [inhibitor, single point] |
| O=C(/C=C/c1ccccc1)N/C(=C/c1ccccc1)C(=O)NCCO |  | inconclusive: 35.5 µM [cytotoxic, single point] |
| COc1ccccc1NS(=O)(=O)c1cccc(N=C2N=C(N)c3ccccc32)c1 | inconclusive: -50.9% |  |

| Compound | ratio change, negative = inhibition | Potency |
| --- | --- | --- |
| Cc1cc(N)n(-c2nc(-c3cccnc3)nc3ccccc23)n1 | inconclusive: -31.4% |  |
| O=C(CS(=O)c1ccc(C(F)(F)F)cc1[N+](=O)[O-])Oc1ccc(Cl)cc1 (stereo not drawn) |  | inconclusive: 35.5 µM [cytotoxic, single point] |
| O=C(NCCS(=O)(=O)N1CCN(c2ccc(F)cc2)CC1)c1cccc(C(F)(F)F)c1 | inconclusive: -2.97% [at 46 µM] |  |
| Cc1cc(C)n(/N=C/c2cc(Cl)cc(Cl)c2O)c(=O)c1 | inconclusive: -12.2% [at 46 µM] |  |
| Cc1cc(C)n2nc(/C(C#N)=C/c3ccccn3)c(C#N)c2n1 |  | inconclusive: 25.1 µM [inhibitor, single point] |
| CCC(=O)C1=C(c2ccc(OC)c(OC)c2)N(C(=O)CC)n2c(CC)nnc2S1 | inactive |  |
| O=C(NCc1cccnc1)c1ccc(COc2ccccc2Br)o1 |  | inconclusive: 35.5 µM [falling, single point] |
| CCN(c1nc(N)c(C(=O)N=C(N)N)nc1Cl)C(C)C | inconclusive: -40.8% |  |
| O=C(Nc1cc([N+](=O)[O-])ccc1N1CCCC1)c1ccco1 | inactive |  |
| Cc1ccn2c(NCc3ccc4c(c3)OCO4)c(-c3ccc(O)cc3)nc2c1 | inactive |  |
| FC(F)(F)c1ccc2c(c1)[nH]c(=S)n2C1CC1 | inconclusive: 11.6% [at 46 µM] |  |
| O=C(Nc1cccnc1)c1cc(-c2ccc(F)cc2)on1 | inconclusive: 11.3% [at 46 µM] |  |
| Cc1cc([N+](=O)[O-])ccc1NC(c1nnc(-c2ccccc2)o1)c1ccccc1F (stereo not drawn) | inconclusive: 20.1% [at 46 µM] |  |
| Cc1nc2cc(C(=O)NC3CCCCCC3)ccc2n1-c1ccc(Br)cc1 | inconclusive: -19.7% [at 46 µM] |  |
| CCOC(=O)C(Cc1ccccc1)NC(=O)CCc1c(C)nc2ncnn2c1C (stereo not drawn) | inactive: 6.77% [at 0.0737 µM] |  |
| CCc1ccc(N(C(=O)c2csnn2)C(C(=O)NCc2ccccc2)c2ccco2)cc1 (stereo not drawn) | inactive |  |
| CCCCCCn1c(SCCC)nc2c1c(=O)[nH]c(=O)n2C | inactive |  |
| O=c1oc2ccc3ccccc3c2cc1-c1nnc(-c2ccccc2)o1 | inconclusive: 6.88% |  |
| O=C1NC(c2ccco2)Nc2sc3c(c21)CCN(Cc1ccccc1)C3 (stereo not drawn) | inactive |  |
| CC1CCN(C(=O)CCc2nc3cc(S(=O)(=O)N(C)C)ccc3n2C)CC1 | inconclusive: -6.27% |  |
| O=C(CN(C1CCCCC1)S(=O)(=O)c1ccc(F)cc1)Nc1ccc2c(c1)OCO2 |  | inconclusive: 35.5 µM [fluorescent, single point] |

Among those listed so far, these have a CF3 group.

| Compound | ratio change, negative = inhibition | Potency |
| --- | --- | --- |
| O=C(CS(=O)c1ccc(C(F)(F)F)cc1[N+](=O)[O-])Oc1ccc(Cl)cc1 (stereo not drawn) |  | inconclusive: 35.5 µM [cytotoxic, single point] |
| O=C(NCCS(=O)(=O)N1CCN(c2ccc(F)cc2)CC1)c1cccc(C(F)(F)F)c1 | inconclusive: -2.97% [at 46 µM] |  |
| FC(F)(F)c1ccc2c(c1)[nH]c(=S)n2C1CC1 | inconclusive: 11.6% [at 46 µM] |  |

Filtered by structure, those above with a thiophene ring, fused or not

| Compound | ratio change, negative = inhibition | Potency |
| --- | --- | --- |
| NC(=O)c1c(NC(=O)CN2CCOCC2)sc2c1CCC2 | inconclusive: 18.8% |  |
| O=C1NC(c2ccco2)Nc2sc3c(c21)CCN(Cc1ccccc1)C3 (stereo not drawn) | inactive |  |

Later entries

| Compound | ratio change, negative = inhibition | Potency |
| --- | --- | --- |
| CCc1ccc2c(c1)cc(CN(C(=S)Nc1cccc(C)c1)C1CC1)c1nnnn12 | inconclusive: 0.582% |  |
| COCCNC(=O)C(C)OC(=O)C1=Cc2ccccc2OC1 (stereo not drawn) | inconclusive: 12% [at 46 µM] |  |
| Cc1ccc(N2C(=O)CN(Cc3cccs3)C2=S)cc1C | inactive |  |
| O=C(COC(=O)C(Cc1c[nH]c2ccccc12)NC(=O)c1ccc(Cl)cc1)c1ccc(Cl)cc1 (stereo not drawn) | inconclusive: -9.29% [at 46 µM] |  |
| O=C(NCc1ccco1)c1ccc(N2CCCC2=O)cc1 | inconclusive: 64.5% |  |
| COc1ccccc1-c1nnc2sc(-c3ccc(N(C)C)cc3)nn12 |  | inconclusive: 0.112 µM [inhibitor, full curve, poor fit] |
| Cc1cc(C)n2c(Nc3ccc4c(c3)OCCO4)c(-c3ccc(C)o3)nc2n1 | inactive |  |
| CO/N=C/C(NC(=O)c1ccc(C(F)(F)F)cc1)C(=O)OC (stereo not drawn) | inconclusive: -6.38% [at 46 µM] |  |
| Brc1ccc(C2=CSC3=NCCN23)cc1 | inconclusive: -22.4% [at 46 µM] |  |
| O=C(Nc1ccc2c(c1)C(=O)N(CC1CCCO1)C2=O)c1cccc(Br)c1 (stereo not drawn) | inconclusive: -5.69% |  |
| CCN(CC)CCN1C(=O)C(O)=C(C(C)=O)C1c1ccc(OC)c(OC)c1 (stereo not drawn) | inactive |  |
| O=c1[nH]c(/C(Cl)=C/c2cc(Cl)ccc2O)nc2cc(Cl)ccc12 | inconclusive: -19.2% |  |
| Cc1ccc(-c2nc3ncccn3c2NC2CCCC2)o1 | inconclusive: -2.07% |  |
| O=C(NCCOC(=O)c1ccc([N+](=O)[O-])cc1)c1cccnc1 | inconclusive: 17.5% [at 46 µM] |  |
| O=C(NN1C(=O)C2C3c4ccccc4C(c4ccccc43)C2C1=O)C1CC1 (stereo not drawn) | inactive |  |
| Nc1nc(SCC(=O)c2ccc(F)cc2)n[nH]1 | inactive |  |
| CCOC(=O)N1CCC(N2CCN(S(=O)(=O)c3ccc(OC)cc3)CC2)CC1 | inconclusive: -18.3% [at 46 µM] |  |
| CC(C)Cc1nnc(NS(=O)(=O)Cc2ccccc2)s1 | inactive |  |
| CCOc1ccccc1C(=O)Nn1c(C2CCC2)nc2ccccc2c1=O | inconclusive: -31.1% |  |
| COc1ccc(OC)c(NC(=O)CSC2=Nc3ccccc3C3=NC(CC(=O)NCc4ccc(F)cc4)C(=O)N23)c1 (stereo not drawn) | inconclusive: 4.16% [at 46 µM] |  |
| CC(=O)Nc1cccc(N=NN2CCCCC2)c1 | inconclusive: 13.6% [at 46 µM] |  |

| Compound | ratio change, negative = inhibition | Potency |
| --- | --- | --- |
| COc1ccccc1NC(=O)C(CC=C(Cl)Cl)C(C)=O (stereo not drawn) | inconclusive: 4.79% |  |
| CCOc1ccccc1NC(=O)CCNC(=O)c1ccc(Cl)cc1 | inconclusive: 12.1% [at 46 µM] |  |
| CC(=O)Nc1ccc(/C=N/N2C(=O)NC(C)(c3ccc(OC(F)F)cc3)C2=O)cc1 (stereo not drawn) | inconclusive: 13.7% [at 46 µM] |  |
| CCN(CCCNC(=O)CN(C)S(=O)(=O)c1cccc2nsnc12)c1ccccc1 | inconclusive: 2.45% |  |
| CCCCCN(C(=O)NC(=O)Nc1cccc(C)c1C)S(C)(=O)=O | inactive |  |
| CCOc1ccc(OC(=O)c2c(-c3ccccc3Cl)noc2C)cc1 | inconclusive: 17.3% [at 46 µM] |  |
| c1nc2sc3c(c2c2nnnn12)CCC3 | inconclusive: 32% |  |
| O=[N+]([O-])c1ccc(Oc2cccc(Br)c2)c2ccncc12 |  | inconclusive: 35.5 µM [falling, single point] |
| Cc1ccc(NC(=O)CN2C(=O)c3ccccc3Sc3ccc(C(=O)N4CCOCC4)cc32)c(Cl)c1 | inconclusive: 3.19% [at 46 µM] |  |
| COCCNc1cc(C)nc2cc(-c3ccc(C)cc3)nn12 | inactive |  |
| Cn1c(SCC(=O)NC2CCCC2)nnc1-c1ccncc1 | inconclusive: 14.6% [at 46 µM] |  |
| COc1cccc2c1OC1(C)CC2NC(=O)N1c1cccc(C(=O)N2CCN(c3ccccc3)CC2)c1 (stereo not drawn) | inactive |  |
| CCc1cc2c(NC(C(=O)O)C(C)C)ncnc2s1 (stereo not drawn) | inactive |  |
| O=C(CCSc1ccc(Cl)cc1)N1CCCCCC1 | inactive |  |
| C1CCc2c(nnc3c2-c2nonc2CC3)C1 | inactive |  |
| CC(=O)N1CCN(CC(=O)Nc2cccc(S(=O)(=O)N3CCCCCC3)c2)CC1 | inconclusive: -9.5% [at 46 µM] |  |
| CC1CCC(=NNc2ccc(C(F)(F)F)cc2[N+](=O)[O-])CC1 (stereo not drawn) | inactive |  |
| CSc1nc(N)nc(SCC(=O)CC(=O)OC(C)C)c1C#N | inactive |  |
| C=CCSC1=NC(=O)/C(=C/c2cccs2)S1 | inconclusive: -14.9% |  |
| CCOC(=O)Cc1cc(=O)n2[nH]c(C)c(-c3ccc(Cl)cc3)c2n1 |  | inconclusive: 35.5 µM [cytotoxic, single point] |

Reference: PubChem BioAssay AID1487 (National Center for Advancing Translational Sciences (NCATS), 2009)
